{"sequences": {"note": "Sequences of proteins named here, by UniProt entry; tags and fusion partners are left off. A change or cut given only in a name is not applied to a line headed by its entry.", "UniProt P18054": "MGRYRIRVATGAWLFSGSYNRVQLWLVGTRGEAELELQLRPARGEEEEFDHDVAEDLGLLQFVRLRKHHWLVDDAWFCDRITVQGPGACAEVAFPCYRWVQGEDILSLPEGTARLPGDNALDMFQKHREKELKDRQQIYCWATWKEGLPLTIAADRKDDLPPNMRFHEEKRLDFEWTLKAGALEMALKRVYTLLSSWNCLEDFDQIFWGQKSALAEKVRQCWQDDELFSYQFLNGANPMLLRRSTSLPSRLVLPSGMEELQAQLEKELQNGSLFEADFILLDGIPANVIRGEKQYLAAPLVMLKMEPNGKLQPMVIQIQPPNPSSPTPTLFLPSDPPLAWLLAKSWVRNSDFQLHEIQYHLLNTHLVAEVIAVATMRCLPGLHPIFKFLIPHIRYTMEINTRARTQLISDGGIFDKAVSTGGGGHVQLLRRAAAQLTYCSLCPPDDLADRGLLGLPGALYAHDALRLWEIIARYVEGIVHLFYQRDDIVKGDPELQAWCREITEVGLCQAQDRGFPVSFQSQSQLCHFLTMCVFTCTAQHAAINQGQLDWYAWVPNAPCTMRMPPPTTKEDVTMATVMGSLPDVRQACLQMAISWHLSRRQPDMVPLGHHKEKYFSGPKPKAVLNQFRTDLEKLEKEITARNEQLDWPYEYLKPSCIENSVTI"}, "source": "PubChem BioAssay AID1671190", "about": "(National Center for Advancing Translational Sciences (NCATS), 2021)", "note": "The campaign covered roughly 580,000 compounds. About 6,100 (1.1%) were called active. This list was built around the results that the source calls inconclusive (neither active nor inactive); the mix of calls is not that of the screen. The call rests on the fitted dose curve; in most records, active means well fitted inhibition curve with a large enough effect; inconclusive means small, poorly fitted or top-dose-only effect, or another doubt; inactive means no such curve, though single readings can be large or run the other way. A potency beside an inconclusive call is a rough fit, not a confirmed value. On the % scale 0 is the no-effect control and ±100 the full control effect; potency means the concentration at half of the fitted maximal effect.", "data": [{"target": "Polyunsaturated fatty acid lipoxygenase ALOX12 (Homo sapiens) (UniProt P18054)", "assay": "Primary qHTS assay for inhibitors of human arachidonate 12S-lipoxygenase (ALOX12): Round 2", "conditions": "purified 12hLO, xylenol orange hydroperoxide absorbance; activity change, negative = inhibition: at 108 µM (top of the series) unless noted", "summary_of_the_method": "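Purified human 12hLO at 150 nM in 25 mM Hepes, 0.01% Triton X-100, pH 7.0, preincubated 15 min at room temperature with compound. Reaction started with 40 uM arachidonic acid, 30 min at room temperature. Hydroperoxide measured by Fe-xylenol orange, 573/405 nm absorbance ratio.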", "values": [{"smiles": "CN(C)c1ccc(NC(=O)C2CCCN(S(=O)(=O)c3ccccc3)C2)cc1", "note": "(centres undefined)", "Potency": "inconclusive: 112 µM [inhibitor, single point]"}, {"smiles": "Cc1ccc(C(=O)N[C@@H]2CN(c3ncccn3)C[C@H]2CO)nc1", "Potency": "inactive"}, {"smiles": "O=C(Nc1ccn(Cc2ccc(F)cc2Cl)n1)c1nc2ncccn2n1", "Potency": "inconclusive: 100 µM [inhibitor, single point]"}, {"smiles": "COC(=O)C1CCN(c2csc3ccc(Cl)cc3c2=O)CC1", "Potency": "inconclusive: 50.1 µM [inhibitor, partial curve, poor fit]"}, {"smiles": "O=C(NCC1Cn2cccc2CN1Cc1ccccc1)c1n[nH]c2ccccc12", "note": "(centres undefined)", "Potency": "inactive"}, {"smiles": "COc1cccc(-c2cncnc2NCc2cnc(C)cn2)c1", "Potency": "inconclusive: 1.41 µM [inhibitor, full curve, poor fit]"}, {"smiles": "N#Cc1c(NC(=S)NC(=O)C2CCCC2)sc2c1CCCCC2", "Potency": "inconclusive: 39.8 µM [inhibitor, partial curve]"}, {"smiles": "Cn1c(N)c(-c2ccccc2)c2ccc([N+](=O)[O-])cc2c1=O", "Potency": "inconclusive: 100 µM [inhibitor, partial curve, poor fit]"}, {"smiles": "COc1ccccc1NC(=S)N/N=C/c1ccc(O)cc1", "Potency": "inconclusive: 44.7 µM [inhibitor, partial curve, poor fit]"}, {"smiles": "COc1cccc(NC(=O)Nc2cc(C(=O)NC(C)C)ccc2N2CC3CC(C2)c2cccc(=O)n2C3)c1", "note": "(centres undefined)", "Potency": "inactive"}, {"smiles": "CCN(CC)S(=O)(=O)c1cc(C(=O)Nc2c(C)cc(C)cc2Cl)ccc1C", "Potency": "inactive"}, {"smiles": "C=Cc1cnc([N+](=O)[O-])n1C", "activity change, negative = inhibition": "inconclusive: -30.4% [inhibitor]"}, {"smiles": "COc1cc(COc2cc(N)c(Cl)cc2C(=O)CCC2CCN(CCNS(C)(=O)=O)CC2)cc(OC)c1", "Potency": "inactive"}, {"smiles": "CCOc1ccc(C(=O)OCc2ncc(-c3ccccc3)o2)cc1", "Potency": "inactive"}, {"smiles": "FC(F)(F)c1ccccc1-c1nc(NC2CCNCC2)c2ccccc2n1", "Potency": "inconclusive: 44.7 µM [inhibitor, partial curve]"}, {"smiles": "Cc1noc(C)c1Cc1ccc(C(=O)N2CCCCCCNC(=O)[C@@H]3CCCC[C@@H]32)o1", "Potency": "inactive"}, {"smiles": "NC1(C(=O)O)C[C@@H](C(=O)O)[C@H](C(=O)O)C1", "Potency": "inconclusive: 1.26 µM [inhibitor, full curve, poor fit]"}, {"smiles": "CC(C)[C@H](CO)Nc1nc(Nc2ccc(C(=O)O)c(Cl)c2)c2ncn(C(C)C)c2n1", "Potency": "inconclusive: 4.85 µM [inhibitor, partial curve]"}, {"smiles": "NC(=O)[C@@H]1CCCNc2c(I)cc([N+](=O)[O-])cc2C(=O)N[C@@H](CO)C(=O)N[C@@H](Cc2ccc(O)cc2)C(=O)N1", "Potency": "inconclusive: 44.7 µM [inhibitor, partial curve, poor fit]"}]}]}
